Experimental findings from US20070036794A1 are described below.

Results are given in words; binding and its absence hold for the method and conditions named. A result given as binding can be weak or reduced; the word gives no strength.

Assay [1] addresses trkC (antigen of the immunoblot of Table 3) (Homo sapiens (Human)). The experiment in a line: immunoblot, non-reduced (NR) trkC. (In general: Immunoblotting shows a protein as a band on a membrane.)
Assay [2] has the same target. The experiment in a line: immunoblot, reduced (Red.) trkC.

B1: anti-trkC agonist monoclonal antibody 2253 (antibody, mouse IgG1, V domains shown)
VH: QVQLQQSGAELMQPGASVKISCKSTGYTFSNFWIEWVKQRPGHGLEWIGEILPGSDNTNYNEKFKGKATFTADTSSNTAYMQLSSLTSEDSAVYYCARKNRNYYGNYVVWGAGTTLTVSS
VL: QIVLTQSPAIMSASPGEKVTITCSASSSVSYMYWFQQKPGTSPKLWIYSTSNLASGVPARFSGSGSGTSYSLTISRMEAEDAATYYCQQRSSYPLTFGAGTKLELKR
Consider B1, for which the binding entry in assay [1] and in assay [2] was “binds” throughout.

B2: anti-trkC agonist monoclonal antibody 2349 (antibody, human IgG4, V domains shown)
VH: QVQLQESGPGLVKPSQTLSLTCTVSGGSISSGYYYWSWIRQHPGKGLEWIGYIYYSGSTYYNPSLKSRLTISVDTSKNQFSLKLSSVTAADTAVYYCARERIAAAGTDYYYNGLAVWGQGTTVTVSS
VL: GIVLTQSPGTLSLSPGERATFSCRASQSGSSTYLAWYQQKPGQAPRLLIYGASSRATGIPDRFSGSGSGTDFTLTISRLEPEDFAVYYCQQYGRSPPITFGQGTRLEIKR
Regarding B2, the binding entry in assay [1] and in assay [2] was “binds” throughout.
